These are yes or no findings as the source states them, for the method shown. Binding seen in cells or lysates may run through a third protein. Binding calls can cover weak binding; strength is not graded here.
target: V5-tagged human β8 integrin (human) (UniProt P26012); assay: co-IP; HEK-293 cells co-transfected with Nrp1 (full-length rat or deletion constructs) and V5-tagged human β8 integrin; detergent-soluble lysates (RIPA) immunoprecipitated with anti-V5, immunoblotted with anti-Nrp1

Amino acid sequences for entries named in this document (tags omitted). Residues count along the entry.
UniProt P26012, residues 43-769: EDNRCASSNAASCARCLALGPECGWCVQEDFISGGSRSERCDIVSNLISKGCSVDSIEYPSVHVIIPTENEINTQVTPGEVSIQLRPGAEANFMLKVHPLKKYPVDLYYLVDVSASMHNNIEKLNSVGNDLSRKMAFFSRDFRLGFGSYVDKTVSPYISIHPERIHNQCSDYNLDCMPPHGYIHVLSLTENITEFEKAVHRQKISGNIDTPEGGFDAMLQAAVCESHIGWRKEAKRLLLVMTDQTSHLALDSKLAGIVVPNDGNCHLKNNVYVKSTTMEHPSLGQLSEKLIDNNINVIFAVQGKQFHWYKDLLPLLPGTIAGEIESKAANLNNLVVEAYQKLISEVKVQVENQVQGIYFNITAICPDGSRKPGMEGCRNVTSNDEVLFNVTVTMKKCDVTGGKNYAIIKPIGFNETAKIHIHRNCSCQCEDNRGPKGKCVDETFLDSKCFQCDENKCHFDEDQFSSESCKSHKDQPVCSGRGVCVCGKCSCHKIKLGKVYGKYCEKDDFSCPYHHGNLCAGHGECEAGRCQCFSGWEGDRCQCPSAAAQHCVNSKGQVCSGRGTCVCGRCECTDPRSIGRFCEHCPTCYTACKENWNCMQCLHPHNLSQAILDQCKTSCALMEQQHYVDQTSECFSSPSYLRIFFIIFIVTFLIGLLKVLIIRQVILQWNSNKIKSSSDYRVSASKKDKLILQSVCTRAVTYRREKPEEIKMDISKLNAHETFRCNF

| binding | Substance |
| --- | --- |
| binds | Nrp1 deletion construct lacking the B domain (from UniProt Q9QWJ9) (receptor) |
| binds | Nrp1 deletion construct lacking the A domain (from UniProt Q9QWJ9) (receptor) |
| binds | Nrp1 deletion construct lacking the MAM domain (from UniProt Q9QWJ9) (receptor) |

From paper PMC4689212
